Assay results: the supplement of paper PMC10849652
This is one part of the list.

Sequences of proteins named here, by UniProt entry; tags and fusion partners are left off. A change or cut given only in a name is not applied to a line headed by its entry.
UniProt P10620: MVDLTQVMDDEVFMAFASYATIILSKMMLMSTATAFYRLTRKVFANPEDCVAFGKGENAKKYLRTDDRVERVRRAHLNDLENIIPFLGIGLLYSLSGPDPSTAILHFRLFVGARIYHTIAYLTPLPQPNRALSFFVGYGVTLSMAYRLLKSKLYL
UniProt Q9H3L0: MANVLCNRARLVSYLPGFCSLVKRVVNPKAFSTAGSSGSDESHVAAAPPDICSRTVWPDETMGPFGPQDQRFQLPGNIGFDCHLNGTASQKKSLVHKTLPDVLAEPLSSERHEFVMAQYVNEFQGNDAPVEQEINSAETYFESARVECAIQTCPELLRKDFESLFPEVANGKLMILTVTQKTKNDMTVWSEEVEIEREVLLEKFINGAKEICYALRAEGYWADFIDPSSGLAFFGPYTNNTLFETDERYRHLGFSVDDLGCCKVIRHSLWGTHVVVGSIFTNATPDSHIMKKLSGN
UniProt Q7Z3U7: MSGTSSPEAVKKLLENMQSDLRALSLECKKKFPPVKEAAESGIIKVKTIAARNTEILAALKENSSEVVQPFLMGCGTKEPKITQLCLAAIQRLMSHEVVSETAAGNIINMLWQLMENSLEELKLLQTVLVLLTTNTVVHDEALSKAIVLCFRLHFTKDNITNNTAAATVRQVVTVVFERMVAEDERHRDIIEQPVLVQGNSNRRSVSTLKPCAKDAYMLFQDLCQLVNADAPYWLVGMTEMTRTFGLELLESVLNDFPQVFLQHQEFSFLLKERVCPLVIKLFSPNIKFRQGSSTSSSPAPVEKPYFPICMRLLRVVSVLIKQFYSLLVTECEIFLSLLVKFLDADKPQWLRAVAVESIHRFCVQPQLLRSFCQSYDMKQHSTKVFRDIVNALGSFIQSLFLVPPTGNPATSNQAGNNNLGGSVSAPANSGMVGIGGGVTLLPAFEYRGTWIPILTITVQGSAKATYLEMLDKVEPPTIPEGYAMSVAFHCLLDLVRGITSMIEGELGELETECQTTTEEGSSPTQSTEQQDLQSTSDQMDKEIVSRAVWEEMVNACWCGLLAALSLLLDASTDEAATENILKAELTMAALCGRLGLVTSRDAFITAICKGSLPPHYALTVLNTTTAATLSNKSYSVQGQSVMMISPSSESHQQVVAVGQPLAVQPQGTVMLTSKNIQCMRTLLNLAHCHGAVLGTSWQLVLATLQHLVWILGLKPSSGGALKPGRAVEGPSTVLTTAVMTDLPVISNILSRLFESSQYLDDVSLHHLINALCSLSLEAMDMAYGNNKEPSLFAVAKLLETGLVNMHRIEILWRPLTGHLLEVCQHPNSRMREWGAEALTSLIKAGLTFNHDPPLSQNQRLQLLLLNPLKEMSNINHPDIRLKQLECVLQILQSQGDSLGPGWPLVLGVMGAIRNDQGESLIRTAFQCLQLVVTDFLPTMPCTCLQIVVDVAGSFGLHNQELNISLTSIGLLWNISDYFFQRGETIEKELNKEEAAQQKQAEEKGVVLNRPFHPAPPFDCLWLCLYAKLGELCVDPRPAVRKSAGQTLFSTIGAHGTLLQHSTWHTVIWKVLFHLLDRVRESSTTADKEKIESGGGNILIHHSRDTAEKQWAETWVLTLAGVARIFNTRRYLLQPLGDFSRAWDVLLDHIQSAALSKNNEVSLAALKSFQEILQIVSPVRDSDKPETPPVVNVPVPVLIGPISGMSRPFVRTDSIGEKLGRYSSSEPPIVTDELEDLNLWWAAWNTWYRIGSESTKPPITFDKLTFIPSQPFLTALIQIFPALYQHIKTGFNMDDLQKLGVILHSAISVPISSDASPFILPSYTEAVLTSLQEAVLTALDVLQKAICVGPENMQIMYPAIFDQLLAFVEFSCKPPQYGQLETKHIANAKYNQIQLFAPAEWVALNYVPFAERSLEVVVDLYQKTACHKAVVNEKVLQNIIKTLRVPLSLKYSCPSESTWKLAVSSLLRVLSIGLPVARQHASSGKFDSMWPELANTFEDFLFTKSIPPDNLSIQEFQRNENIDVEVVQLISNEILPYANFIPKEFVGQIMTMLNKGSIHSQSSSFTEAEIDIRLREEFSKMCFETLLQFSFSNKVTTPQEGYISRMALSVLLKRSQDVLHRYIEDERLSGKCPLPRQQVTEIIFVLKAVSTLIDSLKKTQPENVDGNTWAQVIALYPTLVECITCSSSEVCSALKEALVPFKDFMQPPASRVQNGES
UniProt P29372, whole entry, looked up: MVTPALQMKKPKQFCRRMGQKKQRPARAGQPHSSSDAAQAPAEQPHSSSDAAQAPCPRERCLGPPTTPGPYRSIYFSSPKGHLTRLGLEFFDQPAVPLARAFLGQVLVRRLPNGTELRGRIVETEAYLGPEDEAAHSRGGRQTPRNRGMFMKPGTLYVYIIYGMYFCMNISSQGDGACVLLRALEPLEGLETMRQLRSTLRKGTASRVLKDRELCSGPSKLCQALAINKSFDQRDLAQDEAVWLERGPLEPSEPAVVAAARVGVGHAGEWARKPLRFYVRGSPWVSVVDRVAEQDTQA
UniProt Q99797: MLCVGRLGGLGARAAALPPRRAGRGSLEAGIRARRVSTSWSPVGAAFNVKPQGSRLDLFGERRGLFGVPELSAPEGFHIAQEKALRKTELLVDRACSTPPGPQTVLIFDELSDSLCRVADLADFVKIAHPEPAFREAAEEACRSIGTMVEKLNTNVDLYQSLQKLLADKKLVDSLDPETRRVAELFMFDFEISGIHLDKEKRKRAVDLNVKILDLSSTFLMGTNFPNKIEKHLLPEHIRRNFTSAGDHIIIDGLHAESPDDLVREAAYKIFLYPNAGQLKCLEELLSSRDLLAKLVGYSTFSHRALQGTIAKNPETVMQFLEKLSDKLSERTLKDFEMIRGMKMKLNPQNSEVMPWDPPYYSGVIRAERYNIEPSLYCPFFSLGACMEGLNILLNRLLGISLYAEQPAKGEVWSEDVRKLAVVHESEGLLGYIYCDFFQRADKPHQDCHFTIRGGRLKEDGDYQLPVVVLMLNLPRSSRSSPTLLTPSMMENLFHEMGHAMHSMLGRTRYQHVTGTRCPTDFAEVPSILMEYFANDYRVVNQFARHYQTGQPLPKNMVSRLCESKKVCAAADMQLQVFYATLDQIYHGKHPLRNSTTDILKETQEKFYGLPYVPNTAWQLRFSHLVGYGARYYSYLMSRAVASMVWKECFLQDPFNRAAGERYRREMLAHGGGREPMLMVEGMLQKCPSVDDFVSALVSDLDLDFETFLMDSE
UniProt Q9BVC4, whole entry, looked up: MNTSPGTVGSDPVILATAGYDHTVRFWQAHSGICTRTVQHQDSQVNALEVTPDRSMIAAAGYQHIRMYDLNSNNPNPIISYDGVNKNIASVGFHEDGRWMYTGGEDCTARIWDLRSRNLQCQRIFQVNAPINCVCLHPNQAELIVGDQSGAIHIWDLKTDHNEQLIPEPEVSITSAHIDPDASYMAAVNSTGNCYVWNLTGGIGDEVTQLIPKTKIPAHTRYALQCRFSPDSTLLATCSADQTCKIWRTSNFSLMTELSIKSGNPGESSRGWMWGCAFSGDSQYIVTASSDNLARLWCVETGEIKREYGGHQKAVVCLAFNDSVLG
UniProt Q14149: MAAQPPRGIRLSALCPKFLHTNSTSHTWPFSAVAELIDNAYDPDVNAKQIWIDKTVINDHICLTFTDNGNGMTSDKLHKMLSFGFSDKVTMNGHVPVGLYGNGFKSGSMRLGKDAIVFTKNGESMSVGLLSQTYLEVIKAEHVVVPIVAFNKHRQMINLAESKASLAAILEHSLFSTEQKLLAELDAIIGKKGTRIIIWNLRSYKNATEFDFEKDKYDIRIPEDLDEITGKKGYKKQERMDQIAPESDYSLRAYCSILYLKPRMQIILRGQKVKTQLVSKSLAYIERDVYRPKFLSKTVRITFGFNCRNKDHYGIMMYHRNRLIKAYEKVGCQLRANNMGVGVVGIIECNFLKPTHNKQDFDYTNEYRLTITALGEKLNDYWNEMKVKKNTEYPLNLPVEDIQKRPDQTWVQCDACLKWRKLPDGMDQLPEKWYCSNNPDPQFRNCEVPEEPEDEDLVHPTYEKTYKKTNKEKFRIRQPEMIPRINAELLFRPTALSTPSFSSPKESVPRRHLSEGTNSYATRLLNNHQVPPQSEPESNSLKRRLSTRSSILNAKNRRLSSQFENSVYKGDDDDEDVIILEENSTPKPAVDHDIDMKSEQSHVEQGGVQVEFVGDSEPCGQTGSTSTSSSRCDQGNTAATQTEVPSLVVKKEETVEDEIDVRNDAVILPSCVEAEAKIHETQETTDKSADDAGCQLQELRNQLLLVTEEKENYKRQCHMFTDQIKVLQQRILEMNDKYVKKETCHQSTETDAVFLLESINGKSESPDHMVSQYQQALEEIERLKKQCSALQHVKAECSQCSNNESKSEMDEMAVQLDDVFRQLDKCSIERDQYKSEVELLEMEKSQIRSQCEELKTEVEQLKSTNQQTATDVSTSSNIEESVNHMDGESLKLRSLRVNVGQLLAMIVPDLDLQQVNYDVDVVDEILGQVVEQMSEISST
UniProt P39210: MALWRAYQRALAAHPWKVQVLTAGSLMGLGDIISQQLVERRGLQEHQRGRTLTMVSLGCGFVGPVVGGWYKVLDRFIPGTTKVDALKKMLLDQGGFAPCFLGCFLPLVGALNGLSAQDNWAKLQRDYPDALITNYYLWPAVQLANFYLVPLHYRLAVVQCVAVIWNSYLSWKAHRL
UniProt P49959: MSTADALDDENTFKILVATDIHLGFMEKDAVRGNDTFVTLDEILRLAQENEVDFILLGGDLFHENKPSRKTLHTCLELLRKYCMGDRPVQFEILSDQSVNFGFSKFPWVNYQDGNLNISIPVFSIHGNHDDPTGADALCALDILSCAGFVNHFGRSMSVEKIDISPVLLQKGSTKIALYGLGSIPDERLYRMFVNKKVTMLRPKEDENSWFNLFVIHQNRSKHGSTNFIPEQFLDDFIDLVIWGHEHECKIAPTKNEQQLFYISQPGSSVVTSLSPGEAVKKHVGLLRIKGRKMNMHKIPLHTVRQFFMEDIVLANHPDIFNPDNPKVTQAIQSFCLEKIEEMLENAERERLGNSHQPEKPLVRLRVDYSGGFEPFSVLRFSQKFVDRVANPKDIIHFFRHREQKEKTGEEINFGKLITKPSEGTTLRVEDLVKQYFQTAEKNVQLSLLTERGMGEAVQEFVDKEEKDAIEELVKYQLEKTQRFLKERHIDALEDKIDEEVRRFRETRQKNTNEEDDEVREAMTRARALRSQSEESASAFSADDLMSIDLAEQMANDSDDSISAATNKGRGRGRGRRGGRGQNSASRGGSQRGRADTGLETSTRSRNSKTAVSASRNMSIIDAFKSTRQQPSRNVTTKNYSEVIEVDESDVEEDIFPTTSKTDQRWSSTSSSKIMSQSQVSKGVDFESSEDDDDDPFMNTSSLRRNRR
UniProt Q8TAP9: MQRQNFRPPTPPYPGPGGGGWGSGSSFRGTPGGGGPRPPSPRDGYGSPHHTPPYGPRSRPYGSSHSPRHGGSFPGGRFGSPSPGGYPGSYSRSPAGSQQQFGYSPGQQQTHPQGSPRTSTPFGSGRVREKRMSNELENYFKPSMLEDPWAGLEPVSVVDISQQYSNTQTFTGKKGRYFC
UniProt Q9NV56, whole entry, looked up: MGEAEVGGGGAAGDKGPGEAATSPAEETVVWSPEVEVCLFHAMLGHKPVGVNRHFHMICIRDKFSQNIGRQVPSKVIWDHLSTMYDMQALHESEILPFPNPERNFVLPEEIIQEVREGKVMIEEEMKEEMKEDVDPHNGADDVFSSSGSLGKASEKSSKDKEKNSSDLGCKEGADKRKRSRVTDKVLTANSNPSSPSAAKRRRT
UniProt Q9NZB8: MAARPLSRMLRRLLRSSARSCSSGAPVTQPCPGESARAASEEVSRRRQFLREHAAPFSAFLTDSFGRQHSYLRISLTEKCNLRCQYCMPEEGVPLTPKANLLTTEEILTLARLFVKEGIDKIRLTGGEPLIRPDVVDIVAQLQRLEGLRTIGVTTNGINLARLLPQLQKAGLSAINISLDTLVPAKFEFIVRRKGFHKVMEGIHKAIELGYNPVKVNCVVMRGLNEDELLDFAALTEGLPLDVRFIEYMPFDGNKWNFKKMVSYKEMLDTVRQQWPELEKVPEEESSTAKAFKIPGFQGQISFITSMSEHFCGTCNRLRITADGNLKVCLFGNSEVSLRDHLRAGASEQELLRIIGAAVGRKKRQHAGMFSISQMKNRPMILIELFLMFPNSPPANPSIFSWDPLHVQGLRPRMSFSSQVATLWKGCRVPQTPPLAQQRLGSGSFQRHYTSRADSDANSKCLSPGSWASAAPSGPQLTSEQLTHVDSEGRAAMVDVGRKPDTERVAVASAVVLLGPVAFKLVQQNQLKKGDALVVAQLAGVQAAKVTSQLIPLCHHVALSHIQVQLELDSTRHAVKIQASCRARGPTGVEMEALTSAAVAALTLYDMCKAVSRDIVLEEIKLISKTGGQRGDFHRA
UniProt Q8WV92, whole entry, looked up: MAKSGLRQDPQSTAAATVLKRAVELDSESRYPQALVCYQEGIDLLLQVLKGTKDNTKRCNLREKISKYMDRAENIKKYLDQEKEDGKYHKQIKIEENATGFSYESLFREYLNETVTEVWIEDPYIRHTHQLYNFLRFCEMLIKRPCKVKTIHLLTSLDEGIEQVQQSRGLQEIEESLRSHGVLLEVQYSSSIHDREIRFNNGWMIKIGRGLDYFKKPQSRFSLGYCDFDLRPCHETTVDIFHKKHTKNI

Compound: CCn1c(C(=O)N(C2CC2)C2CC2)cc2c3c(ncn3C)c(Nc3cc(C)n(C)n3)nc21
Assay: log2 fold change, soluble protein after heating vs DMSO (PISA); higher = thermal stabilisation; K562 lysate, 10 uM; active = over 0.2 and 3.5 SD of the protein, either way, in both replicates (recomputed)
How it was run: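 Soluble protein was defined as the supernatant remaining after 21,000xg for 90 min, following pooling of heated aliquots and adjustment to 0.5% NP-40 at 4°C. Before that, crude K562 extract at 1 mg/mL protein in PBS pH 7.4 with 1 mM MgCl2 was treated with 10 μM compound for 30 min and heated for 3 min across 48°C-58°C. Quantification used TMTpro 16plex LC-MS/MS with channel sums equalised, and values are log-two fold changes in thermal stability relative to solvent controls from duplicates.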

log2 fold change, inactive:
MKLN1 (UniProt Q9UL63) 0.009, MICAL3 (UniProt Q7RTP6) -0.013, MGST1 (UniProt P10620) -0.036, MMADHC (UniProt Q9H3L0) -0.037, MON1B (UniProt Q7L1V2) -0.01, MRPL16 (UniProt Q9NX20) -0.018, MOSPD2 (UniProt Q8NHP6) 0.039, MON2 isoform 5 (UniProt Q7Z3U7) 0.019, MGST2 (UniProt Q99735) -0.085, MICAL2 (UniProt O94851) -0.12, MKKS (UniProt Q9HB66) 0.045, MOCOS (UniProt Q96EN8) 0.006, MPG (UniProt P29372) -0.01, MRPL1 (UniProt Q9BYD6) -0.043, MOB4 (UniProt Q9Y3A3) -0.043, MIPEP (UniProt Q99797) 0.029, MLST8 (UniProt Q9BVC4) 0.023, MORC3 (UniProt Q14149) 0.007, MPV17 (UniProt P39210) 0.019, MICU2 (UniProt Q8IYU8) -0.036, MOB3B (UniProt Q86TA1) -0.071, MGA (UniProt Q8IWI9) -0.108, MNX1 (UniProt P50219) 0.108, MINDY1 isoform 3 (UniProt Q8N5J2) -0.106, MRE11 isoform 3 (UniProt P49959) 0.005, MRPL2 (UniProt Q5T653) 0.02, MPLKIP (UniProt Q8TAP9) -0.01, MRGBP (UniProt Q9NV56) -0.073, MOCS2 (UniProt O96007) -0.045, MKRN3 (UniProt Q13064) -0.139, MIF4GD isoform 3 (UniProt A9UHW6) 0.037, MNT (UniProt Q99583) -0.033, MKI67 (UniProt P46013) 0.007, MOCS1 isoform 8 (UniProt Q9NZB8) -0.015, MRM1 (UniProt Q6IN84) -0.092, MITD1 (UniProt Q8WV92) -0.031
